Results taken from PMC4756710.
No constants are given. Whether binding was seen depends on the method and setting. In cells and extracts the contact can be indirect. Binding calls can cover weak binding; strength is not graded here. Tags and fused reporters may be left off the sequences shown.

Target: T1, HA-tagged WT ZEB1, full length, in vitro synthesized (UniProt P37275)
T1 sequence: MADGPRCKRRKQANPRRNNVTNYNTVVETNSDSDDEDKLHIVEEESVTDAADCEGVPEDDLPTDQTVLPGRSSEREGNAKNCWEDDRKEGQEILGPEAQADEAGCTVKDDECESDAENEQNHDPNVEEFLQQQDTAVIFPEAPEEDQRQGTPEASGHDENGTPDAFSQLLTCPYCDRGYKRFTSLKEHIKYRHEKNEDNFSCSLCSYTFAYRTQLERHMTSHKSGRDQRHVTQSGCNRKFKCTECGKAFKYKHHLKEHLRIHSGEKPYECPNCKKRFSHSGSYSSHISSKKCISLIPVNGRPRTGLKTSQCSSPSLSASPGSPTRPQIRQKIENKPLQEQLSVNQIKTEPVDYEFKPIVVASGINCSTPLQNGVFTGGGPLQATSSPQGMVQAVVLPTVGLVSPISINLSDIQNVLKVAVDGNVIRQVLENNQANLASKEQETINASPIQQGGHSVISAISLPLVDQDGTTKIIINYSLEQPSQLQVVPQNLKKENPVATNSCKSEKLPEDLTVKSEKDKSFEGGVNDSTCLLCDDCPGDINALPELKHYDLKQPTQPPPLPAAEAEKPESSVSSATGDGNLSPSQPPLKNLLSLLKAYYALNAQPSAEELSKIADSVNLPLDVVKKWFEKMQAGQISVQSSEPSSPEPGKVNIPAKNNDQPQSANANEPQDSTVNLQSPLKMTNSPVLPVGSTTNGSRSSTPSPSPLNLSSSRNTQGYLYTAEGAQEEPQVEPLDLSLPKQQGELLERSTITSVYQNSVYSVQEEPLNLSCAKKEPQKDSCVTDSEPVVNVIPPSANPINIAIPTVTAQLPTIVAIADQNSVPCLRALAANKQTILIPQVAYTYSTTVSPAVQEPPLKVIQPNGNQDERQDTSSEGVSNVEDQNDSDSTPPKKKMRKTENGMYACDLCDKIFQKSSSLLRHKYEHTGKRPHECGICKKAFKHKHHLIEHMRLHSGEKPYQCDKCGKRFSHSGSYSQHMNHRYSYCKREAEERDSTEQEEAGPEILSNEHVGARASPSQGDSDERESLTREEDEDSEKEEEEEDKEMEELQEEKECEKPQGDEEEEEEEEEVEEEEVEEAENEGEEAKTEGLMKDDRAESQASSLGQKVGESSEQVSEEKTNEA
Assay: pull-down; in vitro translated proteins (wheat germ) incubated in pull-down buffer (250 mM sucrose, 10 mM MOPS/KOH pH 7.2, 80 mM KCl, 5 mM MgCl2, 5 mM KH2PO4) 1 h at 37 °C; HA-ZEB1 held on anti-HA affinity matrix, 1 h at 4 °C, five washes; western blot (anti-His)

binding: binds
Substance: His-tagged YAP fragment p2 (central WW-repeat containing domain) (domain or fragment)
